No constants are given. Whether binding was seen depends on the method and setting. Binding seen in cells or lysates may run through a third protein. Some entries that bind do so weakly or less than the wild type. Sequences can lack the tags named with a protein.
T1: C-terminal STREP-tagged PSKH2 (human) (UniProt Q96QS6)
T1 sequence: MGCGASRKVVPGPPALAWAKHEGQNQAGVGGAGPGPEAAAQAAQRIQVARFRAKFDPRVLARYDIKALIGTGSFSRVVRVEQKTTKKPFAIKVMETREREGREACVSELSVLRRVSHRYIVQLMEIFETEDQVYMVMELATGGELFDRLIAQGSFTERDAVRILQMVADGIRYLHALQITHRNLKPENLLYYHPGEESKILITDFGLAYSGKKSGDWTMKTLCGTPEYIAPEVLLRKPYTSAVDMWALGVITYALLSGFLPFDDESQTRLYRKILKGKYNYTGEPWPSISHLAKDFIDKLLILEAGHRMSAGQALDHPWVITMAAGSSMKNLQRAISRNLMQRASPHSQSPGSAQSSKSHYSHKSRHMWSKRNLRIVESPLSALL

T2: N-terminal STREP-tagged PSKH2 (human) (UniProt Q96QS6)
T2 sequence: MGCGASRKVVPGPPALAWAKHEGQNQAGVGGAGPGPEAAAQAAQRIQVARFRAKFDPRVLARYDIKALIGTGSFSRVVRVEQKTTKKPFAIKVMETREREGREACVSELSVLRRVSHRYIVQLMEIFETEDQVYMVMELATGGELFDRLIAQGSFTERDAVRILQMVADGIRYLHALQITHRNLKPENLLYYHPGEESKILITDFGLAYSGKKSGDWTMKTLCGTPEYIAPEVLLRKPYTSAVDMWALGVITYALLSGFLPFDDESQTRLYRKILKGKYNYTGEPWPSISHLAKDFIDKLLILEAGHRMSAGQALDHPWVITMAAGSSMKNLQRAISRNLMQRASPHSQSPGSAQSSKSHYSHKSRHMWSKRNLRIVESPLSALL

T3: FLAG-tagged FKBP5 (UniProt Q13451)
T3 sequence: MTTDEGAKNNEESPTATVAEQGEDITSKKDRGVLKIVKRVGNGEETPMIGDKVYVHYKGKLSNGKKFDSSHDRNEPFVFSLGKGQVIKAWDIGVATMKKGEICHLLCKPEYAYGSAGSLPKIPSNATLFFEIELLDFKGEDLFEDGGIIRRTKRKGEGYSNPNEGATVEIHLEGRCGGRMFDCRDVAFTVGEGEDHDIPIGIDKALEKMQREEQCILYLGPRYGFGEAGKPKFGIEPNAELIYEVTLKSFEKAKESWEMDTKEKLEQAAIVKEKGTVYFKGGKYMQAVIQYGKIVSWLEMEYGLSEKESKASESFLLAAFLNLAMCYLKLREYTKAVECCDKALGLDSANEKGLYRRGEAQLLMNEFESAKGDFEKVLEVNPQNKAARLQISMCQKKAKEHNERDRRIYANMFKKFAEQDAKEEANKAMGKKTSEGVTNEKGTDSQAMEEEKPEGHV

T4: FLAG-tagged Cdc37 (UniProt Q16543)
T4 sequence: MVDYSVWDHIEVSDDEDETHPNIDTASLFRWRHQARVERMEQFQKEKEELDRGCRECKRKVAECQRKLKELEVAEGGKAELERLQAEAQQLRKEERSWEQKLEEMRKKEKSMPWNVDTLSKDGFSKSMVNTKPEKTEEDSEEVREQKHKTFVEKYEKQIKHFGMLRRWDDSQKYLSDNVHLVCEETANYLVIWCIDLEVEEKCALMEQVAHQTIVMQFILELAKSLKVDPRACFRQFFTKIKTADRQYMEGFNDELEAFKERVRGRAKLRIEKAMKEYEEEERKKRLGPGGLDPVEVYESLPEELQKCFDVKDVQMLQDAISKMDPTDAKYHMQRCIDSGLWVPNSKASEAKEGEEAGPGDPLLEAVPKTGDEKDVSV


What was measured:
[1] = biological target: T1, C-terminal STREP-tagged PSKH2 (human); test: co-IP; Strep-TactinXT affinity precipitation of N- or C-terminal Strep-tagged PSKH2 from HEK-293T lysate (50 mM Tris-HCl pH 7.4, 150 mM NaCl, 0.1% Triton X-100, 1% DDM), immunoblot of endogenous partners
[2] = biological target: T2, N-terminal STREP-tagged PSKH2 (human); test: as above
FLAG-tagged FKBP5 = biological target: T3, FLAG-tagged FKBP5; test: co-IP; FLAG-tagged HSP90, Cdc37 or FKBP5 as bait on anti-FLAG resin, co-expressed with PSKH2-Strep in HEK-293T, eluted with SDS-PAGE sample buffer, immunoblot
FLAG-tagged Cdc37 = biological target: T4, FLAG-tagged Cdc37; test: as above

binding [1] | binding [2] | binding (FLAG-tagged FKBP5) | binding (FLAG-tagged Cdc37) | Binder
binds | binds | – | – | FKBP5 (protein, UniProt Q13451 1-457) MTTDEGAKNNEESPTATVAEQGEDITSKKDRGVLKIVKRVGNGEETPMIGDKVYVHYKGKLSNGKKFDSSHDRNEPFVFSLGKGQVIKAWDIGVATMKKGEICHLLCKPEYAYGSAGSLPKIPSNATLFFEIELLDFKGEDLFEDGGIIRRTKRKGEGYSNPNEGATVEIHLEGRCGGRMFDCRDVAFTVGEGEDHDIPIGIDKALEKMQREEQCILYLGPRYGFGEAGKPKFGIEPNAELIYEVTLKSFEKAKESWEMDTKEKLEQAAIVKEKGTVYFKGGKYMQAVIQYGKIVSWLEMEYGLSEKESKASESFLLAAFLNLAMCYLKLREYTKAVECCDKALGLDSANEKGLYRRGEAQLLMNEFESAKGDFEKVLEVNPQNKAARLQISMCQKKAKEHNERDRRIYANMFKKFAEQDAKEEANKAMGKKTSEGVTNEKGTDSQAMEEEKPEGHV
– | – | binds | binds | C-terminal STREP-tagged PSKH2 (protein, UniProt Q96QS6 1-385) MGCGASRKVVPGPPALAWAKHEGQNQAGVGGAGPGPEAAAQAAQRIQVARFRAKFDPRVLARYDIKALIGTGSFSRVVRVEQKTTKKPFAIKVMETREREGREACVSELSVLRRVSHRYIVQLMEIFETEDQVYMVMELATGGELFDRLIAQGSFTERDAVRILQMVADGIRYLHALQITHRNLKPENLLYYHPGEESKILITDFGLAYSGKKSGDWTMKTLCGTPEYIAPEVLLRKPYTSAVDMWALGVITYALLSGFLPFDDESQTRLYRKILKGKYNYTGEPWPSISHLAKDFIDKLLILEAGHRMSAGQALDHPWVITMAAGSSMKNLQRAISRNLMQRASPHSQSPGSAQSSKSHYSHKSRHMWSKRNLRIVESPLSALL
binds | binds | – | – | Cdc37 (protein, UniProt Q16543 1-378) MVDYSVWDHIEVSDDEDETHPNIDTASLFRWRHQARVERMEQFQKEKEELDRGCRECKRKVAECQRKLKELEVAEGGKAELERLQAEAQQLRKEERSWEQKLEEMRKKEKSMPWNVDTLSKDGFSKSMVNTKPEKTEEDSEEVREQKHKTFVEKYEKQIKHFGMLRRWDDSQKYLSDNVHLVCEETANYLVIWCIDLEVEEKCALMEQVAHQTIVMQFILELAKSLKVDPRACFRQFFTKIKTADRQYMEGFNDELEAFKERVRGRAKLRIEKAMKEYEEEERKKRLGPGGLDPVEVYESLPEELQKCFDVKDVQMLQDAISKMDPTDAKYHMQRCIDSGLWVPNSKASEAKEGEEAGPGDPLLEAVPKTGDEKDVSV
binds | – | – | – | Geranylgeranyl transferase type-2 subunit beta (RABGGTB) (protein, UniProt P53611 1-331) MGTPQKDVIIKSDAPDTLLLEKHADYIASYGSKKDDYEYCMSEYLRMSGIYWGLTVMDLMGQLHRMNREEILAFIKSCQHECGGISASIGHDPHLLYTLSAVQILTLYDSINVIDVNKVVEYVKGLQKEDGSFAGDIWGEIDTRFSFCAVATLALLGKLDAINVEKAIEFVLSCMNFDGGFGCRPGSESHAGQIYCCTGFLAITSQLHQVNSDLLGWWLCERQLPSGGLNGRPEKLPDVCYSWWVLASLKIIGRLHWIDREKLRNFILACQDEETGGFADRPGDMVDPFHTLFGIAGLSLLGEEQIKPVNPVFCMPEEVLQRVNVQPELVS
